Laboratory results from article PMC3355077.
No constants are given. Whether binding was seen depends on the method and setting. Binding seen in cells or lysates may run through a third protein. Here binding means that the protein was enriched with, or labelled near, the bait; the list need not be complete.

Sequences of proteins named here, by UniProt entry; tags and fusion partners are left off. A change or cut given only in a name is not applied to a line headed by its entry. A line that says so, or that is headed by a name, gives the form on record, which may keep a tag or linker.
Psip1/p52 (endogenous) (mouse (endogenous in NIH 3T3 and MEFs)) (Q99JF8, form named): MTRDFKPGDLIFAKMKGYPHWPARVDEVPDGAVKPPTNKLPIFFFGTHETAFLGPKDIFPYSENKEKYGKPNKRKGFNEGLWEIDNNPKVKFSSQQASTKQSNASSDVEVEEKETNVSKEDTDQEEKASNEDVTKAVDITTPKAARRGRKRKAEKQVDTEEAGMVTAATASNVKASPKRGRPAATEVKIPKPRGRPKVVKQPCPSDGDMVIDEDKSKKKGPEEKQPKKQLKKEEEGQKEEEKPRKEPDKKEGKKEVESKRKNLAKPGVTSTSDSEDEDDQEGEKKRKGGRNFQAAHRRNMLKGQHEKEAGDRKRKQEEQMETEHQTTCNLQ

Molecular target: Psip1/p52 (endogenous) (mouse (endogenous in NIH 3T3 and MEFs)) (UniProt Q99JF8)
Assay: affinity purification with mass spectrometry; A300-847 IP from NIH 3T3 nuclear extract, washes with 200 mM KCl; gel bands analysed by MS/MS (Mascot)

binding	Binder
binds	Rbm 12b (protein, UniProt Q80YR9 1-836) MAVVIRLLGLPFIAGPVDIRHFFKGLTIPDGGVHIIGGKVGEAFIIFATDEDARRAISRSGGFIKDSSVELFLSSKVEMQKTIEMKRTARVGRGRPGSGASGVGNVYHFSDALKEEESYSGYGSSVNRDAGFHTNGTGLDLRPRKTRPLKAENPYLFLRGLPYLVNEDDVRVFFSGLCVDGVILLKHHDGRNNGDAIVKFASCVDASGGLKCHRSFMGSRFIEVMQGSEQQWIEFGGTATEGGDTPRMRSEEHSPSRRINGRHFRKRSHSKSPRARSRSPLGFYVHLKNLSLNTNKRDLRNLFRDTDLTNDQIKFVYKDERRTRYAFVMFKNQKDYNTALGLHKTVLQYRPVLIDPVSRKEMVRIIECYEKKRPESLEKERPGRVSQKYSQEGFSGSGQKLCIYIRNLPFDVTKGEVQKFFADFSLVEDDIYLLCDDKGVGLGEALVRFKSEEQAMKAERLNRQRFLGIEVLLRLISEEQMQEFGVKSSWLSNERTQACSRSHDGDDCSCLFDLKDPSSCSFGQSESLRYHPKDLRKMGHFKHPQGYFRQSDRRSPEDFRHSPEDYRHPWEEHTSHSREEDWRLPLEDWKWSQEDDFRQCHEKDRRQLRSPWEEDFRRPSQEHFRRSYQEHIRQPPEEHFRRSREEDFRHVADEDFRQASDEDFRTSQEDLRYPTDEDFRRVSVEDLREVPEKDLRLPKNFRSPGEEFWTPPDFRGQHPFGNFDHLQGGKFDFEKYKFGSFPDAKVTSDLNLNCVSDKIIPVKISNLPFKANASEILDFFHGYKVIPDSVSLQYNEQGLPIGEAIVAMTNYNEALAAVKDLSGRPVGPRKVKLSLL
binds	U5-102 kDa (protein, UniProt Q91YR7 1-941) MNKKKKPFLGMPAPLGYVPGLGRGATGFTTRSDIGPARDANDPVDDRHAPPGKRTVGDQMKKNQAADDDDEDLNDTNYDEFNGYAGSLFSSGPYEKDDEEADAIYAALDKRMDERRKERREQREKEEIEKYRMERPKIQQQFSDLKRKLAEVTEEEWLSIPEVGDARNKRQRNPRYEKLTPVPDSFFAKHLQTGENHTSVDPRQTQFGGLNTPYPGGLNTPYPGGMTPGLMTPGTGELDMRKIGQARNTLMDMRLSQVSDSVSGQTVVDPKGYLTDLNSMIPTHGGDINDIKKARLLLKSVRETNPHHPPAWIASARLEEVTGKLQVARNLIMKGTEMCPKSEDVWLEAARLQPGDTAKAVVAQAVRHLPQSVRIYIRAAELETDIRAKKRVLRKALEHVPNSVRLWKAAVELEEPEDARIMLSRAVECCPTSVELWLALARLETYENARKVLNKARENIPTDRHIWITAAKLEEANGNTQMVEKIIDRAITSLRANGVEINREQWIQDAEECDRAGSVATCQAVMRAVIGIGIEEEDRKHTWMEDADSCVAHNALECARAIYAYALQVFPSKKSVWLRAAYFEKNHGTRESLEALLQRAVAHCPKAEVLWLMGAKSKWLAGDVPAARSILALAFQANPNSEEIWLAAVKLESENNEYERARRLLAKARSSAPTARVFMKSVKLEWVLGNISAAQELCEEALRHYEDFPKLWMMKGQIEEQGELMEKAREAYNQGLKKCPHSTPLWLLLSRLEEKIGQLTRARAILEKSRLKNPKNPGLWLESVRLEYRAGLKNIANTLMAKALQECPNSGILWSEAVFLEARPQRKTKSVDALKKCEHDPHVLLAVAKLFWSERKITKAREWFHRTVKIDSDLGDAWAFFYKFELQHGTEEQQEEVRKRCENAEPRHGELWCAVSKDITNWQRKIGEILVLVAARIKNTF
